Assay results as given in the supplement of paper PMC4604168 (melanoma cell lines).
The other results are listed elsewhere or left out. Single values are uncertain, as repeats are few or missing.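 Imaging used 1,536-well plates; nuclei positive for cleaved PARP by antibody were divided by total DNA-stained nuclei to yield the apoptosis fraction. Doses for screening kept most cells viable, and cell lines differ markedly in resting and induced cleaved-PARP levels.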

Tests used:
Assay in all cases: cleaved PARP positive nuclei fraction relative to DMSO control; melanoma cells; higher = more apoptosis
Conditions in all cases: library dose: low library concentration; 72 h
501Mel = test system: 501Mel
A101D = test system: A101D
A2058 = test system: A2058
A375 = test system: A375
C32 = test system: C32
CBRC013 = test system: CBRC013 (line from a melanoma biopsy)
CBRC014 = test system: CBRC014 (line from a melanoma biopsy)
CBRC016 = test system: CBRC016 (line from a melanoma biopsy)
CBRC017 = test system: CBRC017 (line from a melanoma biopsy)
CBRC034 = test system: CBRC034 (line from a melanoma biopsy)
COLO792 = test system: COLO792
COLO800 = test system: COLO800
COLO829 = test system: COLO829
G361 = test system: G361
IPC-298 = test system: IPC-298
IST-MEL1 = test system: IST-MEL1
LB2518-MEL = test system: LB2518-MEL
LOXIMVI = test system: LOXIMVI

Row | Structure (SMILES) | cleaved PARP positive nuclei fraction (501Mel) [%] | cleaved PARP positive nuclei fraction (A101D) [%] | cleaved PARP positive nuclei fraction (A2058) [%] | cleaved PARP positive nuclei fraction (A375) [%] | cleaved PARP positive nuclei fraction (C32) [%] | cleaved PARP positive nuclei fraction (CBRC013) [%] | cleaved PARP positive nuclei fraction (CBRC014) [%] | cleaved PARP positive nuclei fraction (CBRC016) [%] | cleaved PARP positive nuclei fraction (CBRC017) [%] | cleaved PARP positive nuclei fraction (CBRC034) [%] | cleaved PARP positive nuclei fraction (COLO792) [%] | cleaved PARP positive nuclei fraction (COLO800) [%] | cleaved PARP positive nuclei fraction (COLO829) [%] | cleaved PARP positive nuclei fraction (G361) [%] | cleaved PARP positive nuclei fraction (IPC-298) [%] | cleaved PARP positive nuclei fraction (IST-MEL1) [%] | cleaved PARP positive nuclei fraction (LB2518-MEL) [%] | cleaved PARP positive nuclei fraction (LOXIMVI) [%]
1 | O=C(CCCCCCC(=O)Nc1ccccc1)NO [vorinostat] + N#Cc1c(O)c2c(-c3ccc(-c4ccccc4O)cc3)csc2[nH]c1=O [A769662] (first compound 0.08 µM, partner dose 2 µM) | 99.7 | 55.3 | 178 | 58.3 | 184 | 123 | 93.5 | 114 | 176 | 86.3 | 132 | 110 | 23.7 | 113 | 54 | 122 | 160 | 68.5
2 | Cc1ccc(NC(=O)c2cccc(N(C)C)c2)cc1NC(=O)c1ccc(O)cc1 + CC(C)CCN1c2nc(Nc3cc(F)c(O)c(F)c3)ncc2N(C)C(=O)C1C [BID1870] (first compound 2 µM, partner dose 0.2 µM) | 43.1 | 69.9 | 47.1 | 209 | 111 | 328 | 164 | 24.5 | 178 | 94.1 | 57.4 | 124 | 41.3 | 112 | 31.1 | 135 | 82.5 | 154
3 | Cc1ccc(NC(=O)c2cccc(N(C)C)c2)cc1NC(=O)c1ccc(O)cc1 + O=S(=O)(c1ccccc1)N(CC(F)(F)F)c1ccc(C(O)(C(F)(F)F)C(F)(F)F)cc1 [T0901317] (first compound 2 µM, partner dose 1.4 µM) | 98.4 | 53.6 | 120 | 98.9 | 129 | 302 | 124 | 34.5 | 103 | 52.6 | 55.3 | 99.6 | 171 | 164 | 74.5 | 31.1 | 177 | 41
4 | OCCn1cc(-c2cnc3nnn(Cc4ccc5ncccc5c4)c3n2)cn1 + CCc1ccc(CCOc2ccc(CC3SC(=O)NC3=O)cc2)nc1 [pioglitazone] (first compound 1 µM, partner dose 2 µM) | 131 | 63.3 | 96.5 | 143 | 73 | 258 | 94.8 | 87.5 | 42.8 | 167 | 58 | 81.2 | 28.7 | 55.6 | 81 | 43.9 | 95 | 64.9
